The assay concerns the target ΔspVdSCP41 fused with a 3 × FLAG tag (Verticillium dahliae). The experiment in a line: affinity purification with mass spectrometry; ΔspVdSCP41-3×FLAG expressed in Arabidopsis protoplasts; lysate (50 mM HEPES pH 7.5, 150 mM KCl, 1 mM EDTA, 1 mM DTT, 0.2% Triton X-100) on anti-FLAG agarose beads 12 hr at 4°C, eluted with 3 × FLAG peptide, tandem mass spectrometry.

Results are given in words; binding and its absence hold for the method and conditions named. In cells and extracts the contact can be indirect. These calls come from enrichment with a bait or labelling near it, and not all partners need be listed.

B1: CBP60g (endogenous, Arabidopsis protoplasts) (protein, UniProt F4K2R6 1-563)
chain: MKIRNSPSFHGGSGYSVFRARNLTFKKVVKKVMRDQSNNQFMIQMENMIRRIVREEIQRSLQPFLSSSCVSMERSRSETPSSRSRLKLCFINSPPSSIFTGSKIEAEDGSPLVIELVDATTNTLVSTGPFSSSRVELVPLNADFTEESWTVEGFNRNILTQREGKRPLLTGDLTVMLKNGVGVITGDIAFSDNSSWTRSRKFRLGAKLTGDGAVEARSEAFGCRDQRGESYKKHHPPCPSDEVWRLEKIAKDGVSATRLAERKILTVKDFRRLYTVNRNELHNIIGAGVSKKTWNTIVSHAMDCVLDETECYIYNANTPGVTLLFNSVYELIRVSFNGNDIQNLDQPILDQLKAEAYQNLNRITAVNDRTFVGHPQRSLQCPQDPGFVVTCSGSQHIDFQGSLDPSSSSMALCHKASSSTVHPDVLMSFDNSSTARFHIDKKFLPTFGNSFKVSELDQVHGKSQTVVTKGCIENNEEDENAFSYHHHDDMTSSWSPGTHQAVETMFLTVSETEEAGMFDVHFANVNLGSPRARWCKVKAAFKVRAAFKEVRRHTTARNPREGL
For B1, the binding result was “binds”.
